Results: the supplement of paper PMC12578635
± gives the standard deviation of the averaged measurements. The list shows a part of the results. Single values are uncertain, as repeats are few or missing.

system: RAW 264.7 macrophages infected with S. aureus JE2-lux; test: host macrophage viability (CellTiter-Fluor) relative to DMSO vehicle; higher = more viable host cells; conditions: 10 µM; treatment time 4 h; gentamicin 50 µg/ml

SMILES | host macrophage viability
Cc1ccc(NC(=O)Cn2cnc3c(cnn3-c3ccc(F)cc3)c2=O)c(C)c1 | 112 ± 23%
C=CCn1c(NCCO)nc2sc3c(c2c1=O)CCC3 | 108 ± 9.3%
O=C1NC(=S)N/C1=C\c1cc([N+](=O)[O-])ccc1OCc1ccccc1Cl | 79.6%
O=C(NCc1ccccc1Cl)C1CCCN(c2nccnc2Oc2ccccc2)C1 (stereo not drawn) | 103%
O=C(CCn1cnc2onc(-c3cc(F)cc(F)c3)c2c1=O)NCc1cccc(F)c1 | 106%
COc1ccc(C(=O)C2CCN(C(=O)Nc3ccccc3F)CC2)cc1 | 102%
O=C(Cn1cc(S(=O)(=O)c2ccccc2)c(=O)c2cc(F)ccc21)Nc1cccc(Cl)c1 | 115%
CCc1cc(=O)n2ncc(C(=O)Nc3cc(Cl)ccc3C)c2[nH]1 | 115%
CC(C)(C)NC(=O)CCn1c(-c2cccnc2)cc2cccnc21 | 91.5%
COc1ccccc1/N=c1\oc2ccc(Br)cc2cc1C(=O)NC(C)=O | 104%
COCCn1/c(=N/C(=O)c2ccno2)sc2cc(S(C)(=O)=O)ccc21 | 110%
CC(=O)c1ccc(Nc2nc(C)nc3c2c(C)c(C)n3-c2ccc(F)cc2)cc1 | 90.4%
Cc1nc2c(ccc3nc(NC(=O)c4cc(-c5cccs5)nc5ccccc45)sc32)s1 | 127 ± 3.3%
O=C(CSc1nc2c(cnn2-c2ccc(F)cc2)c(=O)[nH]1)N1CCOCC1 | 101%
CCOc1ccc(C(=O)NC2CC3CCCC(C2)N3C(=O)Nc2ccc(F)cc2)cc1 (stereo not drawn) | 119%
COc1ccc(-c2nnc3ccc(SCC(=O)Nc4c(C)cc(C)cc4C)nn23)cc1 | 101 ± 9%
O=C(Nc1nc2ccc3ccccc3c2s1)c1c(F)cccc1F | 122%
CCOC(=O)c1ccc(CC2SC(=N)NC2=O)cc1 (stereo not drawn) | 117%
COc1ccc(C(NC(=O)c2cccc3c(C)c(C)[nH]c23)c2ccncc2)cc1 (stereo not drawn) | 146%
Oc1nc(SCc2c(F)cccc2Cl)nc2[nH]cnc12 | 105%
COC(=O)c1sc2nc(N)c(C#N)c(-c3ccco3)c2c1N | 120%
Cc1cccc(-c2nc(N)n(C(=O)Cc3ccc(Cl)cc3)n2)c1 | 111%
COc1cccc(-c2csc(/C(C#N)=C/Nc3cc(Cl)ccc3OC)n2)c1 | 118 ± 3.1%

4 of the compounds above, field by field:
Cc1ccc(NC(=O)Cn2cnc3c(cnn3-c3ccc(F)cc3)c2=O)c(C)c1
  host macrophage viability: 112 ± 23%
O=C1NC(=S)N/C1=C\c1cc([N+](=O)[O-])ccc1OCc1ccccc1Cl
  host macrophage viability: 79.6%
O=C(CCn1cnc2onc(-c3cc(F)cc(F)c3)c2c1=O)NCc1cccc(F)c1
  host macrophage viability: 106%
COc1ccc(C(=O)C2CCN(C(=O)Nc3ccccc3F)CC2)cc1
  host macrophage viability: 102%

Next entries.

SMILES | host macrophage viability
CCCCC(=O)N1CCN(c2nc3ccccc3cc2-c2noc(C)n2)CC1 | 107%
CC(=O)Nc1ccc(S(=O)(=O)N2CCN=C2SCc2ccc([N+](=O)[O-])cc2)cc1 | 122%
COc1ccc(-n2nnc3c(SCC(=O)NCC4CCCO4)ncnc32)cc1 (stereo not drawn) | 95.2 ± 4.9%
O=C(CCN1C(=O)c2cccc3cccc(c23)C1=O)NC1CCS(=O)(=O)C1 (stereo not drawn) | 99.3%
COc1ccccc1C(=O)n1nc(-c2ccccc2Cl)nc1N | 119%
Cc1sc2nc(SC/C=C/c3ccccc3)[nH]c(=O)c2c1C | 116%
Cc1cc(Nc2ccc(C)c(F)c2)n2nc(Cc3cccc(F)c3)nc2n1 | 122%
COc1cccc(-n2c(C)c(C)c3c2ncn2nc(-c4ccccc4Br)nc32)c1 | 120%
Cc1ccc(-c2cnc3c(-c4ccc(Cl)cc4)cnn3c2N)cc1 | 120%
CC12CC(NC(=O)N1Cc1ccccc1)c1ccccc1O2 (stereo not drawn) | 106%
CCn1c(=O)[nH]c(=O)c2cnc(-c3ccc(OC)cc3)nc21 | 130%
COc1cc(NC(=O)CSC2=NS(=O)(=O)c3ccccc3N2)cc(OC)c1 | 104%
O=C(NNc1nc2c(Cl)cccc2s1)C1COc2ccccc2O1 (stereo not drawn) | 120 ± 8%
Cn1c(=O)c2c(SCC(=O)NCc3ccco3)ccnc2n(C)c1=O | 120%
COc1cc2c(cc1OC)C(COc1ccc([N+](=O)[O-])cc1)N(C(=S)NC(C)(C)C)CC2 (stereo not drawn) | 114%
CCN(CCNC(=O)c1ccc2nc(N3CCN(c4ncccn4)CC3)ccc2n1)c1cccc(C)c1 | 113%
O=C(NC1CC1)c1ccc(S(=O)(=O)N2CCC(NC(=O)c3cccc(F)c3)CC2)cc1 | 119%
CC(C)c1cc(C(=O)NC(c2ccncc2)c2ccc(Cl)cc2)n(C)n1 (stereo not drawn) | 104%
Cc1cc2nc(NC(=O)Nc3cccc(F)c3)sc2cc1C | 91.2%
CC1CCCN(c2ccc(NS(=O)(=O)c3ccc4[nH]c(=O)[nH]c(=O)c4c3)cc2)C1 (stereo not drawn) | 116%
CC1=NNC(=O)/C1=N\Nc1ccc(S(=O)(=O)N2CCOCC2)cc1 | 84.7%
O=C(CSc1ncnc2c1oc1ccccc12)Nc1ccc(Br)cc1 | 124%
CC1Cc2ccccc2N1C(=O)CCn1c(=O)oc2ccccc21 (stereo not drawn) | 111 ± 4.6%

SMILES | host macrophage viability
COc1ccc(C(=O)CSc2nc3c(C)cc(C)cc3cc2C#N)cc1OC | 101%
Cc1ccc(C)c(NC(=O)c2c(-c3ccccc3Cl)noc2C)c1 | 127%
COC(=O)c1sccc1NC(=O)CSc1nccnc1N1CCN(c2cccc(C)c2C)CC1 | 104%
COc1ccccc1-n1c(CNC(=O)c2ccccc2F)n[nH]c1=S | 123%
CCCCc1ccc(NC(=O)CSC2=NS(=O)(=O)c3cc(F)ccc3N2)cc1 | 128%
Cc1[nH]c2c(C(=O)Nc3ccc(Cl)cc3)cnn2c(=O)c1C | 129%
Cc1cccn2c(=O)c(C=O)c(Nc3ccc([N+](=O)[O-])cc3)nc12 | 97.3 ± 2.8%
Cc1ccc(N2C(=O)NC3CC2(C)Oc2ccccc23)cc1Cl (stereo not drawn) | 125%
Cc1nnc(SCC(=O)NCCc2ccccc2)[nH]c1=O | 117%
COc1ccc(C)c2sc(NC(=O)C3=COCCO3)nc12 | 127%
Cc1cc2c(cc1NC(=O)C1OCOc3ccccc31)OCCO2 (stereo not drawn) | 103%
CCOC(=O)c1c(NC(=O)c2cc(-c3cccs3)on2)sc2c1CCC2 | 136%
CCN1CCN(c2nc(NCCCN3CCOCC3)nc(N)c2[N+](=O)[O-])CC1 | 99.6%
Cc1cc2c(cc1C)NC(CC(=O)NC1CCCCC1)C(=O)N2 (stereo not drawn) | 119%
Cc1nn(-c2cccc(Cl)c2)c2nc(-c3ccccn3)cc(C(F)(F)F)c12 | 126%
CC1CCCCN1c1nc2c(c(=O)[nH]c(=O)n2C)n1Cc1ccccc1 (stereo not drawn) | 107%
O=C(Nc1ccccc1)N1CCC(n2cnc3cc(F)ccc32)CC1 | 124%
Cc1cccc(NC(=O)c2cccc3c2-c2ccccc2C3=O)n1 | 108%
O=C(CSc1nc2ccccc2n1Cc1ccccc1F)Nc1ccc2c(c1)OCCO2 | 108%
CC1(C)COc2ccc(NC(=O)C3CCCC3)cc2NC1=O | 107%
COC(=O)c1sc(-c2ccccc2)cc1NC(=O)c1cc(OC)cc(OC)c1 | 110 ± 16%
NC(=O)c1cc2cc(Cl)ccc2o/c1=N/NC(=O)c1cccc(F)c1 | 109%
